Experimental data taken from PubChem BioAssay AID588497 (NMMLSC, 2011).
Screen size: about 360,000 compounds; about 780 (0.22%) were called active. The shares of active, inactive and inconclusive entries below differ from those in the screen. Rule as the data show it: active = inhibition above about 35% (passing the limit was not always enough); inconclusive = no clear call, values can overlap the other calls.

system: Botulinum neurotoxin type F light chain protease (Clostridium botulinum); assay: BoNT/F light chain protease inhibitors, primary screen, biochemical, flow cytometry, MLPCN library (AID 588497); conditions: Multiplex microsphere protease cleavage assay, at 10 µM, active compounds read high; also: plate controls were buffer without enzyme for full effect and enzyme alone for no effect

Structure (SMILES)	inhibition
CC(C)c1ccc(OCC(=O)Nc2c3c(nn2C(C)(C)C)CS(=O)(=O)C3)cc1	inconclusive: 12.2%
O=C(Nc1nc2c(c(=O)[nH]1)CCCC2)C1CC1	inconclusive: -7.1%
O=C(N/N=C\c1ccc(F)cc1)c1cc(OCC(F)(F)F)ccc1OCC(F)(F)F	inactive: -3.8%
CC(=O)c1sc(-c2ccc(F)cc2F)nc1C	inactive: 2.6%
c1ccc2oc(-c3ccn[nH]3)cc2c1	inconclusive: -9.6%
CC(C)CN(C(=O)CC(C)c1ccccc1)c1c(N)n(Cc2ccccc2)c(=O)[nH]c1=O (stereo unspecified)	inconclusive: -3.3%
Nn1c(-c2ccc(F)cc2)nc2ccccc2c1=O	inactive: 1.2%
O=C(Nc1cccc(C(=O)N2CCCc3ccccc32)c1)c1ccccc1	inconclusive: 15.9%
CCOc1ccc(-n2cnc3c(=O)[nH]c(N)nc32)cc1	inconclusive: 23.8%
CCCN1CCN(C(=O)c2ccc3nc(CC)c(CC)nc3c2)CC1	inconclusive: 25.8%
Oc1ccc(Cc2ccc(Cl)cc2)c(O)c1	inconclusive: -32.2%
O=C(Nc1nnc(CCN2CCCCC2)s1)c1cccc(Cl)c1	inconclusive: -20.6%
CSc1nc(O)c(C(c2ccccc2)c2c(O)nc(SC)[nH]c2=O)c(=O)[nH]1	inconclusive: 1.9%
CC(C)Cn1nc(NC(=O)c2cccs2)c2cc3ccccc3nc21	inconclusive: -7%
CCOc1ccc(CNCCN2CCCC2)cc1	inconclusive: -22.1%
COc1ccc(S(=O)(=O)N2CCCCC2)cc1NC(=O)c1ccc(Cl)nc1	inactive: -2.7%
COc1ccccc1N1CCN(Cc2ccc3c(c2)OCO3)CC1	inconclusive: -76%
COc1ccccc1C(=O)O/N=C(\N)c1ccccn1	inconclusive: -26.4%
CC(C)(C)c1cc(CN(CCO)CCO)c(O)c(C(C)(C)C)c1	inactive: -6.9%
CNC(=O)Nc1cc(NC(=O)NC)cc(C(F)(F)F)c1	inconclusive: 15.2%
CSCCC(N=C1NS(=O)(=O)c2ccccc21)C(=O)N1CCCC(C(N)=O)C1 (stereo unspecified)	inactive: 0.6%
Cc1ccccc1-c1nc2sc(C)c(C)c2c(=O)o1	inconclusive: -21.3%
Cc1ccc(N2C(=O)CC(Nc3cccc4ccccc34)C2=O)cc1 (stereo unspecified)	inconclusive: -57.8%
CC(C)=CC(=O)Nc1ccc(S(=O)(=O)Nc2onc(C)c2C)cc1	inconclusive: 14.5%
Cc1cccc(C)c1NC(=O)NNC(=O)c1cc(C(C)(C)C)nn1Cc1ccccc1	inconclusive: 21%
O=C(NCCc1ccccc1)c1c[nH]c2ccc(F)cc2c1=O	inconclusive: -0.3%

Given as labelled records: part of the list above.
COc1ccc(S(=O)(=O)N2CCCCC2)cc1NC(=O)c1ccc(Cl)nc1
  inhibition: inactive: -2.7%
COc1ccccc1N1CCN(Cc2ccc3c(c2)OCO3)CC1
  inhibition: inconclusive: -76%
